The text below walks through data of the RNAGym collection of RNA variant scans (doi:10.1126/science.aae0568).

Variants at the floor of the assay are shown more often than the library holds them. Some results are limits rather than exact numbers.

First the molecules themselves.
B1: tRNA (parent)
chain: GUUCCGUUGGCGUAAUGGUAACGCGUCUCCCUCCUAAGGAGAAGACUGCGGGUUCGAGUCCCGUACGGAACG

The variants in the data set derive from B1. Nature of the data set: yeast fitness relative to wild type (ratio to wild type); higher = fitter; tRNA-Arg(CCU), competitive growth, 37 C, YPD. An outline of the steps: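 Changes in genotype frequencies gave Darwinian fitness relative to wild type. Frequencies were read by 100-nucleotide paired-end sequencing of gene amplicons before and after pooled Saccharomyces cerevisiae strains, carrying tRNA-Arg(CCU) gene variants at the native locus, were competed in YPD at 37°C for 24 hours in six replicates. A genotype was kept only with ≥ 100 starting reads, and estimates < 0.5 were set to 0.5.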
Consider A14U G25A C62A G63A A70G, for which the yeast fitness is at most 0.5.
On to G25C A40C G68C, for which the yeast fitness came to 0.645.
As for C5G C31U G41C A43C C60G, the figure is at most 0.5.
As for G17C C29U, the figure is 0.545; as for G18A C55A G63C, at most 0.5.
For C30A C34A C60U, the yeast fitness is at most 0.5.
To C5U A20G C31U A69C belongs at most 0.5; to C11G U26A G44C C62A, at most 0.5.
As for U13A C31U C34U U54C, the figure is at most 0.5; as for U3C U7A A21G C30G A36G C46G A57U, at most 0.5; as for C55G U64C A65C, at most 0.5.
Regarding C27U C30G C55U A57C, the yeast fitness was at most 0.5.
To A40C A42C A43G belongs at most 0.5; to U28A C55G A70G, at most 0.5; to C29G C49A C55G A70C, at most 0.5.
For A15G G52A A57U G58C, the yeast fitness is at most 0.5.
With U7A A36C A40U A70C, the yeast fitness was at most 0.5.
C27G C46U C61G: the yeast fitness is at most 0.5.
With U2C C29A C34G A43U G52A, the yeast fitness is 0.682.
With U3C C5G U19G C31A C46A, the yeast fitness came out at 0.663.
A14U G25C C30U U47C: the yeast fitness is at most 0.5.
As to C5G U13G C29A, the yeast fitness is at most 0.5.
With C4U U13G C29U C34U, the yeast fitness is at most 0.5.
To A20G A36U C55G belongs at most 0.5; to A15U C61U C62G A69U, at most 0.5.
As to C5U A21G A42U G58A, the yeast fitness amounted to 1.02.
For G18C C22U C55U C66U, the yeast fitness was at most 0.5.
In the case of C4A U13C C55G G56C, the yeast fitness is at most 0.5.
To C11U C27U G38C A40U A45G G52A A65C belongs at most 0.5; to G9C G23A A40C G48A U53G, at most 0.5; to G10A C49G G68C, at most 0.5.
As for C11U C29A U35A G56A, the figure is at most 0.5; as for U13G U16A G44A C49G, at most 0.5.
For the variant G6A G17C C61U C62U C66A, the yeast fitness is at most 0.5.
In the case of A15G A43U U47G G63A A65G, the yeast fitness is at most 0.5.
In the case of U13A G41C G52A, the yeast fitness is at most 0.5.
C4A A37C G41A A42C: the yeast fitness was at most 0.5.
G10C G25C U26C A70U: the yeast fitness was at most 0.5.
As to U8A A40C C46U G52A, the yeast fitness was at most 0.5.
As for U7G U32A U35C C61G, the figure is at most 0.5.
To U13A C46G G63C C66A belongs at most 0.5.
As to U54A C62G, the yeast fitness was found to be 0.637.
As for G10A C11U A20G A40G C55G A69C, the figure is at most 0.5; as for C11A C22U A45U, at most 0.5.
To G6A A42G C55G belongs at most 0.5.
For the variant G18A A37C G48A A69C, the yeast fitness was at most 0.5.
To U47A C62U belongs 0.842.
To U16A A37U C62G belongs at most 0.5.
As to G10C C24U C29A A45U C46G U47A G50A C61A, the yeast fitness was at most 0.5.
As for A15G C24U G68C, the figure is at most 0.5; as for G25A G41A G51C C60U, at most 0.5.
For the variant U3A C30G A69U, the yeast fitness is at most 0.5.
For G23C G58A A69C, the yeast fitness is at most 0.5.
For the variant U8C C27U C34G C60A A69U, the yeast fitness is at most 0.5.
As for G10A G18A A42C C61A C62G A65U, the figure is at most 0.5.
To C4G C11G C34U G38A G44C belongs at most 0.5; to C4A U7C C24G C61A C66U, at most 0.5; to G9C G39A C66G, at most 0.5.
As for U3C C24G G44A, the figure is at most 0.5; as for A15C C31U U35C G38A G56C A70U, at most 0.5.
For the variant G17A A65U, the yeast fitness came out at 0.805.
As for U3A U19A C62U, the figure is 0.776.
To G9A U32C C33G A37G G51A belongs at most 0.5; to C29G G58A A70C, at most 0.5.
Take G10A G17A A36G A40C U64C: the yeast fitness was at most 0.5.
As for A15U C34U C60G, the figure is at most 0.5.
With C27G C31U C33A A36U C49A C55G, the yeast fitness is at most 0.5.
As for U28A U47G A65C A70U, the figure is at most 0.5; as for A14G C31U C49G A57G, at most 0.5; as for G9C A36U G50C C61U C66U, at most 0.5.
To C5G U19C A20G A40G G44A C46G belongs at most 0.5; to C11A C24U G48A, at most 0.5; to A37U C60U C62G U64A A69U, at most 0.5.
To A21U U32C A36G A37U G67A belongs at most 0.5.
Take A37G C49G C55U G56C G68A: the yeast fitness was at most 0.5.
As for A15U C33G C66U, the yeast fitness was at most 0.5.
As for C33G A43C G68A, the figure is at most 0.5; as for C11G U53C C55U, at most 0.5.
As for C4G G18C A43C A57C G58A, the figure is at most 0.5.
Regarding U8A U16A C29G A42G C46G A65U, the yeast fitness is at most 0.5.
To A14C C62G belongs 0.599; to G9C C34G U54G, at most 0.5.
For the variant G6A G39C C60G A70U, the yeast fitness was at most 0.5.
For the variant C24G C27G C61U, the yeast fitness is at most 0.5.
As for U7C C30G C49U, the figure is at most 0.5; as for C11G C27A G56C C61A, at most 0.5.
As for U32C G52C, the figure is 0.602.
To U3A A42C G63A belongs at most 0.5; to U3C C24A U26G A43C C62G G63A C66G A69G, at most 0.5; to A21U G25A G56A A65G C66A G68C, at most 0.5.
For A45G C62A A69C, the yeast fitness was 0.595.
C4A A20C A42U: the yeast fitness is at most 0.5.
With A15C A21C A42C, the yeast fitness is at most 0.5.
